In patent US20190233516A1:
These are yes or no findings as the source states them, for the method shown. Some results given as binding are weak or reduced against the parent protein; the word gives no strength. Sequences can lack the tags named with a protein.

Sequences of proteins named here, by UniProt entry; tags and fusion partners are left off. Residues count along the entry.
UniProt P15209, residues 32-821: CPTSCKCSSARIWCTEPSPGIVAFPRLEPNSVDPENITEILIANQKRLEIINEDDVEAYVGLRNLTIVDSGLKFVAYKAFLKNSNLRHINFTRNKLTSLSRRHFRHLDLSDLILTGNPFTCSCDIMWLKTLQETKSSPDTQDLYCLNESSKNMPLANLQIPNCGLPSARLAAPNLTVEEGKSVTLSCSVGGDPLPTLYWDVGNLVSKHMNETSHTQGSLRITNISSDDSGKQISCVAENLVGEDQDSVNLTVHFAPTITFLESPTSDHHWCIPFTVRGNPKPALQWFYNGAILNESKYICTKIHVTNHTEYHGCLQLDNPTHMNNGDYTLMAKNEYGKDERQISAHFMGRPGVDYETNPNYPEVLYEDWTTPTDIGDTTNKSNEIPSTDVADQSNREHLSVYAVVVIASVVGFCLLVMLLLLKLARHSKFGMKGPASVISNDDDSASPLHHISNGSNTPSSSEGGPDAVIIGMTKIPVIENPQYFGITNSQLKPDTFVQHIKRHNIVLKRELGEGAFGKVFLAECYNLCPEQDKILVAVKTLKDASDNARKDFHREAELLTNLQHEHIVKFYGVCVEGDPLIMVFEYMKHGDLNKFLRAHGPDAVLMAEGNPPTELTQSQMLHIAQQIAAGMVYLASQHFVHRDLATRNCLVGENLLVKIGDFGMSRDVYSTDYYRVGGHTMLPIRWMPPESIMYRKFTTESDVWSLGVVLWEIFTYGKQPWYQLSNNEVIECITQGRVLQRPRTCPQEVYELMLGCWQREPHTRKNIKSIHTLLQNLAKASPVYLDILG

Biological target: Mouse TrkB (tyrosine receptor kinase B) on RAW 264.7 cells (mouse) (UniProt P15209)
Experiment: coculture of BW5147 cells carrying the chimeric receptor with RAW cells overexpressing TrkB; binding is told in words and read out by IL-2 ELISA

B1: TrkB-Myc-WT chimeric transmembrane protein (anti-TrkB VL-linker-VH-Myc-hinge-TM cytoplasmic part, wild type zeta chain) (scFv)
chain: DVVMTQLPLSLPVILGDQASISCRSSQSLIHSNGNTYLHWYLQKPGQSPKLLIYKVSNRFSGVPDRFSGSGSGTDFTLKISRVEAEDLGVYFCSQSTHVPFTFGSGTKLEIKRAGGSSRSSSSGGGGSGGGGQVQLQQSGPELVKPGASVKLSCKASGYTFTSYDINWVKQRPGQGLEWIGWIYPRDGSIKFNEKFKGKATLTVDTSSSTAYMELHSLTSEDSAAYFCARRGRLLLYGFAYWGQGTLVTVSAVDEQKLISEEDLALSNSIMYFSHFVPVFLPAKPTTTPAPRPPTPAPTIASQPLSLRPEASRPAAGGAVHTRGLDLCYLLDGILFIYGVIITALYLRAKFSRSAETAANLQDPNQLYNELNLGRREEYDVLEKKRARDPEMGGKQQRRRNPQEGVYNALQKDKMAEAYSEIGTKGERRRGKGHDGLYQGLSTATKDTYDALHMQTLAPR
- binding: binds
